Reference: patent US20240108744A1 (priority 2022, published 2024)

assay: general procedure: solution-phase peptide synthesis; dicyclohexylcarbodiimide / N-hydroxysuccinimide; settings: late stage modification step

With “((2R,3R)-3-((S)-1-((3R,4S,5S)-4-((S)—N,3-dimethyl-2-((S)-3-methyl-2-(methyl(2-(methylthio)ethyl)amino)butanamido)butanamido)-3-methoxy-5-methylheptanoyl)pyrrolidin-2-yl)-3-methoxy-2-methylpropanoyl)-L-phenylalanine” as the substance, how does the step yield read?
Its step yield is 46.9%.

Which step yield does the source give for “(S)-2-((2R,3R)-3-((S)-1-((3R,4S,5S)-4-((S)-2-((S)-2-((2-mercaptoethyl)(methyl)amino)-3-methylbutanamido)-N,3-dimethylbutanamido)-3-methoxy-5-methylheptanoyl)pyrrolidin-2-yl)-3-methoxy-2-methylpropanamido)-3-phenylpropanoic acid” here?
The step yield was 77.0%.

For “(S)-2-((2R,3R)-3-((S)-1-((3S,6S,14S,17S,20S, 21R)-3-amino-20-((S)-sec-butyl)-14,17-diisopropyl-21-methoxy-2,6,13,19-tetramethyl-4,7,15,18-tetraoxo-10-thia-5,8,13,16,19-pentaazatricosan-23-oyl)pyrrolidin-2-yl)-3-methoxy-2-methylpropanamido)-3-p”, which step yield is on record?
Its step yield is 87.0%.
